From PMC7759385
No constants are given. Whether binding was seen depends on the method and setting. In cells and extracts the contact can be indirect. Some results given as binding are weak or reduced against the parent protein; the word gives no strength. Tags and fused reporters may be left off the sequences shown.

Protein sequences, listed by entry. Tags and fused reporters are not part of them.
UniProt P52294: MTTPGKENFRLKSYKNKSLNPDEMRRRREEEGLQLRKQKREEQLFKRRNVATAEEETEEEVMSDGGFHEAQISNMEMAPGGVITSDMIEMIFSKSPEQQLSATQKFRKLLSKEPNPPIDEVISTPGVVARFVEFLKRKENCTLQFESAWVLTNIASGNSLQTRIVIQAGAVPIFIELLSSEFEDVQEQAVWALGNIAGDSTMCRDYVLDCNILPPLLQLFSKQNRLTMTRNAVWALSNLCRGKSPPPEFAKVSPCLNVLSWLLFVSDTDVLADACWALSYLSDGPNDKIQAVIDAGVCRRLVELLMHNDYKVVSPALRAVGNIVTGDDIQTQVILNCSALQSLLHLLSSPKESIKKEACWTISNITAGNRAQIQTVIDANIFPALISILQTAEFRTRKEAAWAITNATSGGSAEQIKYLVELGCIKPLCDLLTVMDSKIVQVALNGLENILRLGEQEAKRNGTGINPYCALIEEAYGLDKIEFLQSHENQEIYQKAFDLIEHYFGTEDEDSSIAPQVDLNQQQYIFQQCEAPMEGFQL
UniProt Q04206: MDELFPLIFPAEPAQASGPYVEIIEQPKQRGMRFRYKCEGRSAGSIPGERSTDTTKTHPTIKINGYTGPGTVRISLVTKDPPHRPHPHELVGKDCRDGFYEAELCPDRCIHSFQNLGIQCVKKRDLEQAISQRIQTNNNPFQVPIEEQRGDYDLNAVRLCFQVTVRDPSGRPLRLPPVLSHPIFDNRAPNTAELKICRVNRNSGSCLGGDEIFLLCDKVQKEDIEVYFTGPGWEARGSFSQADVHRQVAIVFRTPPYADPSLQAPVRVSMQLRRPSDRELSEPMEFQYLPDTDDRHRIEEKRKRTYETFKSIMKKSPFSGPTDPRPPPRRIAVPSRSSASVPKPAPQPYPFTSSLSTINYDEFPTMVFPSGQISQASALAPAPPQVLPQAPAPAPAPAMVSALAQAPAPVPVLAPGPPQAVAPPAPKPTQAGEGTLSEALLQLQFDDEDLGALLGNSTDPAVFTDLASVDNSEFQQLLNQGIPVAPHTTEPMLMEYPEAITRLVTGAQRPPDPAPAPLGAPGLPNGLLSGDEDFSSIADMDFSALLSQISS

Target: Flag-tagged karyopherin alpha 1 (KPNA1) (UniProt P52294)
Assay: co-IP; Flag-KPNA1 precipitated with anti-FLAG M2 agarose from HEK293T whole cell lysates co-expressing HA-IRF3 or HA-p65, in the presence and absence of un-tagged WT Vpr or Vpr F34I+P35N; HA detected by immunoblot; lysis 24 h after transfection in 0.5% NP-40 in PBS with protease and phosphatase inhibitors

With “HA-tagged NF-κB p65 (from UniProt Q04206 1-551)” the binding was “binds”.

B1: HA-tagged IRF3 (protein, UniProt Q14653 1-427)
chain: MGTPKPRILPWLVSQLDLGQLEGVAWVNKSRTRFRIPWKHGLRQDAQQEDFGIFQAWAEATGAYVPGRDKPDLPTWKRNFRSALNRKEGLRLAEDRSKDPHDPHKIYEFVNSGVGDFSQPDTSPDTNGGGSTSDTQEDILDELLGNMVLAPLPDPGPPSLAVAPEPCPQPLRSPSLDNPTPFPNLGPSENPLKRLLVPGEEWEFEVTAFYRGRQVFQQTISCPEGLRLVGSEVGDRTLPGWPVTLPDPGMSLTDRGVMSYVRHVLSCLGGGLALWRAGQWLWAQRLGHCHTYWAVSEELLPNSGHGPDGEVPKDKEGGVFDLGPFIVDLITFTEGSGRSPRYALWFCVGESWPQDQPWTKRLVMVKVVPTCLRALVEMARVGGASSLENTVDLHISNSHPLSLTSDQYKAYLQDLVEGMDFQGPGES
B1 was tested, and the binding was “binds”.
